Some of the results follow.
What follows are targets tested with C#Cc1cccc(Nc2ncnc3cc(OCCOC)c(OCCOC)cc23)c1 [erlotinib] (assay: log2 fold change, soluble protein after heating vs DMSO (PISA); higher = thermal stabilisation; K562 lysate, 10 uM; active = over 0.2 and 3.5 SD of the protein, either way, in both replicates (recomputed)).
In short: (§1)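 Dounce homogenisation of K562 pellets in PBS pH 7.4 with 1 mM MgCl2 produced a crude extract, used at 1 mg/mL protein. Exposure to 10 μM compound lasted 30 min, and aliquots were then heated for 3 min across 48°C-58°C, pooled and brought to 0.5% NP-40 at 4°C. The supernatant after 21,000xg for 90 min was quantified by TMTpro 16plex LC-MS/MS with channel sums equalised. Duplicate values are given as log-two fold change in thermal stability relative to solvent controls.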

Sequences of proteins named here, by UniProt entry; tags and fusion partners are left off. A change or cut given only in a name is not applied to a line headed by its entry.
UniProt P62995: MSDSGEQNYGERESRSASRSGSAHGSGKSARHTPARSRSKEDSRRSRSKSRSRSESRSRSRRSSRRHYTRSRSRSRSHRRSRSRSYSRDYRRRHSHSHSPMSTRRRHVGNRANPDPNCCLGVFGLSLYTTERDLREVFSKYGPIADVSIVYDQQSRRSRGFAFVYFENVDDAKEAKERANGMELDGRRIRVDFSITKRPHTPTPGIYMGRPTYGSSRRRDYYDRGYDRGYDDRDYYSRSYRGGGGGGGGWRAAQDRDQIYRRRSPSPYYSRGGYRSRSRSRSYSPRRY
UniProt Q15025: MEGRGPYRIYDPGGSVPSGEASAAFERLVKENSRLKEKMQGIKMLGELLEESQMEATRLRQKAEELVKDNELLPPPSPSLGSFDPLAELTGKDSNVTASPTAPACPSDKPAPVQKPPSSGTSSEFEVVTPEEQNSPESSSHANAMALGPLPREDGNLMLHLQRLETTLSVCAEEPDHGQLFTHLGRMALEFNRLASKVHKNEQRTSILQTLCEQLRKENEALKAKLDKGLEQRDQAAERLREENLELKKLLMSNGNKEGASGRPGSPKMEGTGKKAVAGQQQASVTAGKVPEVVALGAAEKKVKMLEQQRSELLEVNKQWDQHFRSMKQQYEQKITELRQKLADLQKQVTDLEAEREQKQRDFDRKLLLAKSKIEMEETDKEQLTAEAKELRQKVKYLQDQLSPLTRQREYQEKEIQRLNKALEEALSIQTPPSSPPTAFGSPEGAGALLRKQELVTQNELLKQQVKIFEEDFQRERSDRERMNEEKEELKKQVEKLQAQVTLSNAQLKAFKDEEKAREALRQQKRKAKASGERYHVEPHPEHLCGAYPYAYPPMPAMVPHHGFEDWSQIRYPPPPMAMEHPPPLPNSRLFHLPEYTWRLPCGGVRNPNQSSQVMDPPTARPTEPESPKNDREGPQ
UniProt Q96S44: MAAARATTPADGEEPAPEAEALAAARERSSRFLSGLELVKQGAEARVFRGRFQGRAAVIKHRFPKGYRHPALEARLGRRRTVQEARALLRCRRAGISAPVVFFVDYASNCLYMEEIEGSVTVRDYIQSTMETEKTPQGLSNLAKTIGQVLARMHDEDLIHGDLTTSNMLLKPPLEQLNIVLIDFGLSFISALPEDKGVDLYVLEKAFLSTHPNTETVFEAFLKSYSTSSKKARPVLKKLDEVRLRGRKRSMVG
UniProt Q8N9V7: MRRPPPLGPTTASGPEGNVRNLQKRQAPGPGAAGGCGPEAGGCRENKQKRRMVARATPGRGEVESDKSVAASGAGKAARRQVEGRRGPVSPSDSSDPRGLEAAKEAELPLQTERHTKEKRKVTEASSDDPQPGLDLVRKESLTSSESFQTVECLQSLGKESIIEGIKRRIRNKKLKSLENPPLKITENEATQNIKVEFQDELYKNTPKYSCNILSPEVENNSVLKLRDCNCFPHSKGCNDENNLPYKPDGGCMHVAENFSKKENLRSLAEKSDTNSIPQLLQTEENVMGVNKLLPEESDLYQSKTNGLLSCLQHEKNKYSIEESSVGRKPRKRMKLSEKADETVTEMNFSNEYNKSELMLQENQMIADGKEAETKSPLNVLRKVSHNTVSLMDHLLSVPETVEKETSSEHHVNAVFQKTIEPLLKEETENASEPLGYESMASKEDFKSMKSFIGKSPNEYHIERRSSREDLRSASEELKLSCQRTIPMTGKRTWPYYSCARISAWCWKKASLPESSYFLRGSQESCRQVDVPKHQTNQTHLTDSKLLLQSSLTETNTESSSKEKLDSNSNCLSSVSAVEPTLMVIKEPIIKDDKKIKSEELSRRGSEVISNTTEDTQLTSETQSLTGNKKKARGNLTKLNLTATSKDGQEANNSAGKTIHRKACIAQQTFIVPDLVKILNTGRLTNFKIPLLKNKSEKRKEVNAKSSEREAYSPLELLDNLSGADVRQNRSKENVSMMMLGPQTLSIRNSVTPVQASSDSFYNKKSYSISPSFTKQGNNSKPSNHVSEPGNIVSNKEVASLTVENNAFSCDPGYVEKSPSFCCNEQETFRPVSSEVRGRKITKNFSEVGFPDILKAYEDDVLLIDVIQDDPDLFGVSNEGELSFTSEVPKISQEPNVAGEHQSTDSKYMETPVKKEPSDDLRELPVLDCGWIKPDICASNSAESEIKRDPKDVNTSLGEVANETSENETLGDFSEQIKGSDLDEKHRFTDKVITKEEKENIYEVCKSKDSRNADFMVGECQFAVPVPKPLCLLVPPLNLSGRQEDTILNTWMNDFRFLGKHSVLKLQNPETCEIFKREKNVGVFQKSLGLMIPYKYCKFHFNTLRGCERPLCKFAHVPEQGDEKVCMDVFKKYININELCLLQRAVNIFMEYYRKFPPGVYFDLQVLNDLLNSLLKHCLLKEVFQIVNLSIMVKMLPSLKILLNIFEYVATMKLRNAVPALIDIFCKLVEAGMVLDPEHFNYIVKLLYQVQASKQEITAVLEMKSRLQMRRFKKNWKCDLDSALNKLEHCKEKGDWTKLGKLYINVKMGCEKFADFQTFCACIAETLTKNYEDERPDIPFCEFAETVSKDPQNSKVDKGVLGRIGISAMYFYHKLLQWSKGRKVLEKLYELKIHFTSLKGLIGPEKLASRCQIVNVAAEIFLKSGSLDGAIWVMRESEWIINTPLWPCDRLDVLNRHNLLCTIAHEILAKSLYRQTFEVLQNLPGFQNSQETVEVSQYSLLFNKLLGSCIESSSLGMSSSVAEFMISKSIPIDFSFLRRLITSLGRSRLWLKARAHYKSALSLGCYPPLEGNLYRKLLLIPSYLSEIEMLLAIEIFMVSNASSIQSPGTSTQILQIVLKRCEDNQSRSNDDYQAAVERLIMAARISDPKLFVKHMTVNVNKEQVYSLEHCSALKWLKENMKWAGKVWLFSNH
UniProt Q9H3S4: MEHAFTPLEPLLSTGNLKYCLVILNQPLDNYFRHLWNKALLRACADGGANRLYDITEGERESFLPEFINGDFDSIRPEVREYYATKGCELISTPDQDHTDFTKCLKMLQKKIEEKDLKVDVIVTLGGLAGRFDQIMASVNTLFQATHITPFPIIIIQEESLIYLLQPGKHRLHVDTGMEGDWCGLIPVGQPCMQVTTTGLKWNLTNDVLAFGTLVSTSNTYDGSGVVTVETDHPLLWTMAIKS
UniProt Q96A57: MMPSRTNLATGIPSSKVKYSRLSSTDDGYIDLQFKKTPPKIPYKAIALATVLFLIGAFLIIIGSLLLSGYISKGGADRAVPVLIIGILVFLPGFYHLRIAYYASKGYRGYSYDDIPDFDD
UniProt P06753, whole entry, looked up: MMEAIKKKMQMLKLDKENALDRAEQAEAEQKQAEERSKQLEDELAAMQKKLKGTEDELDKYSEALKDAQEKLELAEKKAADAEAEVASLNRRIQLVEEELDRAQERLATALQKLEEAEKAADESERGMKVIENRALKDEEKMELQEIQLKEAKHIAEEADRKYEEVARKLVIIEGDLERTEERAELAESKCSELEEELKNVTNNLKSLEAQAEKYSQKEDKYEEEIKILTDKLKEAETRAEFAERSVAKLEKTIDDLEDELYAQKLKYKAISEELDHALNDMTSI
UniProt Q5JTV8: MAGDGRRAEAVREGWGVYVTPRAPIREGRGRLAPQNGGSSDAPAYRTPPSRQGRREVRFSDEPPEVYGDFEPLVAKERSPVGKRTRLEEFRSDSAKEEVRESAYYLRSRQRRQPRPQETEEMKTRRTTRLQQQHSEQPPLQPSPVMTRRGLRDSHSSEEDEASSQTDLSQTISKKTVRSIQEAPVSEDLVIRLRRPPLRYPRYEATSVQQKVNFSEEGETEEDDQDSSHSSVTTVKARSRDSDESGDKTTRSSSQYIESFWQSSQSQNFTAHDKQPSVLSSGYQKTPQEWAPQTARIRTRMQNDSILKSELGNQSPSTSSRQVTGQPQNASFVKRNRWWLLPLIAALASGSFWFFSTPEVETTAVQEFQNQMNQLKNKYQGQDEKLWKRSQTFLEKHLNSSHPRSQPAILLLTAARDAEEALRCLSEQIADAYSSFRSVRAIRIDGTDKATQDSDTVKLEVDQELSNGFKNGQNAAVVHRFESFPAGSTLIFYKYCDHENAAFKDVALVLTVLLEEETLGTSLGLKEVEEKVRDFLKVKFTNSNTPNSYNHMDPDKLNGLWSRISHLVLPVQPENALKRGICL
UniProt Q13595: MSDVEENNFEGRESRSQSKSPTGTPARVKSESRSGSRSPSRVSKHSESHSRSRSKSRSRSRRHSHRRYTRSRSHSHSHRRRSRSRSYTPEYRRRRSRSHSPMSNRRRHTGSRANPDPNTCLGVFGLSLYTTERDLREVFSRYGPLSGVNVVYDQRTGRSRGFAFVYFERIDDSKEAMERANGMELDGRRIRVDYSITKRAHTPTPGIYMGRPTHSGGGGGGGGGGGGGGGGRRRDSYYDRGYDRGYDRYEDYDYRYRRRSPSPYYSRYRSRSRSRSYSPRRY
UniProt Q8NFZ5: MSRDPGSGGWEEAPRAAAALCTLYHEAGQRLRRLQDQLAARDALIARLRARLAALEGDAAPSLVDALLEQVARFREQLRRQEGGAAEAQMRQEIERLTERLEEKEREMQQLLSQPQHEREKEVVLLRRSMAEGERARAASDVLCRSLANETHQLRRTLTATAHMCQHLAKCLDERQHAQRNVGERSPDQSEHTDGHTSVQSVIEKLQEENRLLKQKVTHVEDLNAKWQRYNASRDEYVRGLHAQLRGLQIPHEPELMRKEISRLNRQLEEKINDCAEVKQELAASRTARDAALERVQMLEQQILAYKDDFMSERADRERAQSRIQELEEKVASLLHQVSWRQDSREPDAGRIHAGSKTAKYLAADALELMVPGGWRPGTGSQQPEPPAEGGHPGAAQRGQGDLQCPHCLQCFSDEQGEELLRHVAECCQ
UniProt Q12767: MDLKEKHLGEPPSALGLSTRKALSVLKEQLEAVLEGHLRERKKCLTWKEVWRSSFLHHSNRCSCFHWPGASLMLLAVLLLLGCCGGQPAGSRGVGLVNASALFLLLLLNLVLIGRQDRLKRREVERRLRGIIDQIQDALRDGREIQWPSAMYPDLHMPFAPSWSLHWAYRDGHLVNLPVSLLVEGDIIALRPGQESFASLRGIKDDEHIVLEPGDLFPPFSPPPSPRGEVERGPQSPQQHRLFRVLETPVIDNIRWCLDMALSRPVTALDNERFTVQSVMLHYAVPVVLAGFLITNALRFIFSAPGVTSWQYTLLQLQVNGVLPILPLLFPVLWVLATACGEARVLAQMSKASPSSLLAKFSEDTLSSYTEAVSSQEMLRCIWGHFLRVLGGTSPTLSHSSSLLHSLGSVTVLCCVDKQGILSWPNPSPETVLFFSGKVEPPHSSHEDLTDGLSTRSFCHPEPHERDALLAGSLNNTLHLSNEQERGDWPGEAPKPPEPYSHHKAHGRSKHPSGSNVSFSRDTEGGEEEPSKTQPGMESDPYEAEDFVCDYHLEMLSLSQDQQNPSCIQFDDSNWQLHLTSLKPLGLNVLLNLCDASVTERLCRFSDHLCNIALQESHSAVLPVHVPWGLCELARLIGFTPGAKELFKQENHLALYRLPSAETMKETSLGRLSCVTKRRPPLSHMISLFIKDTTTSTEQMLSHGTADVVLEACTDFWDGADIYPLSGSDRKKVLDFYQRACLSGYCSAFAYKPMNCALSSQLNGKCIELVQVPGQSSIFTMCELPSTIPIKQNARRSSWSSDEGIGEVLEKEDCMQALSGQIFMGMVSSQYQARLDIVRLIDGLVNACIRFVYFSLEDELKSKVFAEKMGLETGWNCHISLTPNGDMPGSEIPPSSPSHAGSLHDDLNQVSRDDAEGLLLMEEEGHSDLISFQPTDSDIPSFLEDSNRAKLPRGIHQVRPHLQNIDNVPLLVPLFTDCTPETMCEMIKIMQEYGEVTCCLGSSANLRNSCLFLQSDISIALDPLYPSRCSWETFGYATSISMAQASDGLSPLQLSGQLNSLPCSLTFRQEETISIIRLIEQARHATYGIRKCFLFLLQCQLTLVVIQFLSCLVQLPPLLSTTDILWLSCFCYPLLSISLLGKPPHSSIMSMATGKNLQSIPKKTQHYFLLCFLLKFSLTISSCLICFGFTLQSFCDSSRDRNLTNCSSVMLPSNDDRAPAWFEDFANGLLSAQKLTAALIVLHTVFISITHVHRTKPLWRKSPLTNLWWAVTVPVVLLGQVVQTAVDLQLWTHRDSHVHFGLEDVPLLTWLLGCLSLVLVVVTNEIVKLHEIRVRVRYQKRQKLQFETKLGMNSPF
UniProt Q9BVT8: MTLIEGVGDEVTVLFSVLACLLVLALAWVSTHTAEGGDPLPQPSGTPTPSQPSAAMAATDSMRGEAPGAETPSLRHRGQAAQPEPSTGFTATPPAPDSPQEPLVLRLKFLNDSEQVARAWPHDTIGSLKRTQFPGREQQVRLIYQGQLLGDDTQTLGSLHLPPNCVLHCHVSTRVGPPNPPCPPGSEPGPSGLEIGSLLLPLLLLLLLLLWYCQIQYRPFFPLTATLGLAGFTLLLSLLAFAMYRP
UniProt Q9NS69: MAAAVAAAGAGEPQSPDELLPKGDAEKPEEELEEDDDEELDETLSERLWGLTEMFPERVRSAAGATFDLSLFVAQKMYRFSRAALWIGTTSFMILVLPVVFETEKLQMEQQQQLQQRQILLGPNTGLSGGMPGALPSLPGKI

log2 fold change, inactive:
TRA2B (UniProt P62995) -0.019
TMEM9 (UniProt Q9P0T7) -0.368
TNIP1 (UniProt Q15025) -0.009
TP53RK (UniProt Q96S44) -0.005
TOPAZ1 (UniProt Q8N9V7) -0.012
TPCN1 isoform 3 (UniProt Q9ULQ1) -0.074
TPBG (UniProt Q13641) 0.004
TMEM19 (UniProt Q96HH6) -0.055
TNRC6A (UniProt Q8NDV7) -0.029
TPM1 (UniProt H7BYY1) -0.034
TPK1 (UniProt Q9H3S4) -0.105
TMEM8A (UniProt Q9HCN3) -0.106
TMEM230 isoform 2 (UniProt Q96A57) 0.015
TPM3 (UniProt P06753) -0.022
TOMM6 (UniProt Q96B49) -0.092
TMUB2 (UniProt Q71RG4) 0.051
TOR1AIP1 (UniProt Q5JTV8) -0.205
TOM1 (UniProt O60784) -0.438
TMEM248 (UniProt Q9NWD8) 0.013
TMPPE (UniProt Q6ZT21) -0.077
TRA2A (UniProt Q13595) -0.164
TNIP2 (UniProt Q8NFZ5) 0.086
TNNC2 (UniProt P02585) -0.048
TNKS (UniProt O95271) 0.064
TNIK (UniProt C9J338) 0.067
TMEM94 isoform 2 (UniProt Q12767) 0.243
TMUB1 (UniProt Q9BVT8) 0.027
TMOD2 (UniProt Q9NZR1) -0.057
TPRG1L (UniProt Q5T0D9) 0.023
TMX4 (UniProt Q9H1E5) -0.011
TMEM35B (UniProt Q8NCS4) -0.097
TPM3 isoform 3 (UniProt P06753) -0.074
TOMM22 (UniProt Q9NS69) 0.008

What follows are targets tested with C/C(=N\NC(=O)C1=CC(=CC=C1)S(=O)(=O)N2CCOCC2)/C3=C(C=CC(=C3)Cl)O in the same assay as above.
In short: as §1

log2 fold change, inactive:
TRA2B (UniProt P62995) -0.149
TMEM9 (UniProt Q9P0T7) 0.021
TNIP1 (UniProt Q15025) -0.031
TP53RK (UniProt Q96S44) 0.025
TOPAZ1 (UniProt Q8N9V7) 0.806
TPCN1 isoform 3 (UniProt Q9ULQ1) -0.081
TPBG (UniProt Q13641) 0.087
TMEM19 (UniProt Q96HH6) -0.05
TNRC6A (UniProt Q8NDV7) 0.078
TPM1 (UniProt H7BYY1) -0.004
TPK1 (UniProt Q9H3S4) -0.135
TMEM8A (UniProt Q9HCN3) -0.076
TMEM230 isoform 2 (UniProt Q96A57) 0.013
TPM3 (UniProt P06753) 0.027
TOMM6 (UniProt Q96B49) -0.049
TMUB2 (UniProt Q71RG4) 0.251
TOR1AIP1 (UniProt Q5JTV8) 0.114
TOM1 (UniProt O60784) -0.036
TMEM248 (UniProt Q9NWD8) 0.032
TMPPE (UniProt Q6ZT21) 0.006
TRA2A (UniProt Q13595) -0.261
TNIP2 (UniProt Q8NFZ5) -0.354
TNNC2 (UniProt P02585) 0.032
TNKS (UniProt O95271) -0.024
TNIK (UniProt C9J338) -0.048
TMEM94 isoform 2 (UniProt Q12767) 0.098
TMUB1 (UniProt Q9BVT8) 0.056
TMOD2 (UniProt Q9NZR1) 0.042
TPRG1L (UniProt Q5T0D9) 0.149
TMX4 (UniProt Q9H1E5) 0.53
TMEM35B (UniProt Q8NCS4) 0.041
TPM3 isoform 3 (UniProt P06753) -0.007
TOMM22 (UniProt Q9NS69) 0.009

These targets were tested with C1=CC(=CC=C1C2=NC3=C(N2)C=C(C=C3)C(=O)N)OC4=CC=C(C=C4)Cl in the same assay as above.
In short: as §1

log2 fold change, inactive:
TRA2B (UniProt P62995) 0.011
TMEM9 (UniProt Q9P0T7) -0.046
TNIP1 (UniProt Q15025) 0.068
TP53RK (UniProt Q96S44) 0.038
TOPAZ1 (UniProt Q8N9V7) 0.003
TPCN1 isoform 3 (UniProt Q9ULQ1) 0.108
TPBG (UniProt Q13641) -0.046
TMEM19 (UniProt Q96HH6) -0.2
TNRC6A (UniProt Q8NDV7) 0.077
TPM1 (UniProt H7BYY1) -0.057
TPK1 (UniProt Q9H3S4) -0.018
TMEM8A (UniProt Q9HCN3) 0.185
TMEM230 isoform 2 (UniProt Q96A57) -0.055
TPM3 (UniProt P06753) -0.026
TOMM6 (UniProt Q96B49) 0.036
TMUB2 (UniProt Q71RG4) 0.004
TOR1AIP1 (UniProt Q5JTV8) 0.093
TOM1 (UniProt O60784) -0.044
TMEM248 (UniProt Q9NWD8) -0.082
TMPPE (UniProt Q6ZT21) 0.004
TRA2A (UniProt Q13595) -0.092
TNIP2 (UniProt Q8NFZ5) -0.378
TNNC2 (UniProt P02585) 0.044
TNKS (UniProt O95271) -0.036
TNIK (UniProt C9J338) 0.067
TMEM94 isoform 2 (UniProt Q12767) -0.017
TMUB1 (UniProt Q9BVT8) 0.004
TMOD2 (UniProt Q9NZR1) 0
TPRG1L (UniProt Q5T0D9) 0
TMX4 (UniProt Q9H1E5) -0.073
TMEM35B (UniProt Q8NCS4) -0.029
TPM3 isoform 3 (UniProt P06753) -0.076
TOMM22 (UniProt Q9NS69) 0.016

Source: the supplement of paper PMC10849652
